# Source: publication PMC10163288
# The other results are listed elsewhere or left out.
# B1: il2ra_site1_2b5i_normal_mot_HHH_b2_00256_000000050_0001_19_35_H_._HHH_b1_06795_0001_0000200025_0000001_0_af2pred_0001_af2pred (protein)
# chain: SSSSSEEDRELVEFIFRLFAEFGLSSEQSKELAQLAAELLDKGVSVEEIKELLRELAEELSSSSS
# B2: il2ra_site1_1z92_sap_20_mot_3afbd42359c492d9a5ba12d7e5b15de5_0001_000000167_0001_17_33_H_._HHH_b2_04511_0001_0000200005_0000001_0_0001 (protein)
# chain: SSSSSDLEEFAQEVVERLVEELGLSEEDKEALERDAEMLVELGFSEKSLERALKWFAERNSSSSS
# B3: il2ra_site2_3nfp_sap_16_mot_HHH_b1_08097_000000036_0001_22_39_H_._HHH_b1_03506_0001_0000100005_0000001_0_0001 (protein)
# chain: SSSSSDEEERRVEELLEEAKHIEDEEERKEVLAEASQLAWELRNPELFFLVAEVLFKLEQSSSSS
# B4: il2ra_site2_2erj_normal_mot_HHH_b1_03702_000000266_0001_38_56_H_._093f7d884af8442902c544b9c13aca27_0001_0001_0000200002_0000001_0_af2pred_0001_af2pred (protein)
# chain: SVEEVVREAEERGELPPRVLRFAKAAIRMAKFAGSPPEFVAEAVEHAARRLGDEDLEELAEKLKK
# B5: il2ra_site1_1z92_sap_13_mot_HHH_b2_08214_af2_000000088_0001_37_50_H_._HHH_b1_00873_0001_0000100005_0000001_0_0001_af2pred_0001_af2pred_1 (protein)
# chain: SEEEEIEEKLRELGVPPELIKAIRRAFRHARENGIPPEQVRRALASALRFDDDPAAELALEALER
# B6: il2ra_site1_1z92_sap_25_mot_HHH_b2_06555_af2_000000230_0001_23_40_H_._HHH_b1_06444_0001_0000100006_0000001_0_0001_af2pred_0001_af2pred_1 (protein)
# chain: TSELIYELLELIARGEVPPEEIREIIEEIAERAGVPPEDVVRLLKALARQINNPEVERLLEEVLR
# B7: il2ra_site1_2b5i_sap_14_mot_706564c13a40034bb3de594a58ae2d05_0001_af2_000000196_0001_37_51_H_._HEEHE_0610_0001_0000500035_0000001_0_0001_af2pred_0001_af2pred_1 (protein)
# chain: SSSSDEVFHEVYELFSRASRLASNGNPEEARELLKEALEIAKESDNEKIREELEHMLKFISSSSS
# B8: il2ra_site1_3nfp_normal_mot_971283e6576f4d06e1f80da1570dade3_0001_1_af2_000000065_0001_35_48_H_._8cb69178cb18ca82f70eade9eeca9cee_0001_0001_0000300035_0000001_0 (protein)
# chain: DEELEEEVREVLGVPPEAAEAFVRAAKEDAGTPERAEKIVRLQLRYAKRDPRVRENLRLQAEALQ
# B9: il2ra_site1_3nfp_normal_mot_HHH_b1_03420_af2_000000029_0001_41_57_H_._HHH_b2_06571_af2_0001_0000200007_0000001_0 (protein)
# chain: SSSSDELQRAIELDKELLELRKRGDEEHAREVLEELKELAEEIGDELARRLVEEYEKFLRSSSSS
# B10: il2ra_site1_2b5i_normal_mot_f5ff40796168375b462bec8614a1db4a_0001_1_000000138_0001_53_65_H_._HHH_b2_04138_af2_0001_0000300030_0000001_0_af2pred_0001_af2pred_1 (protein)
# chain: SSSSDLREELVEALIREAEELIKEGDKERARHILVLAAAIARKANNEELLREVEELLKELSSSSS
# B11: il2ra_site2_2erj_sap_26_mot_HHH_b2_01423_af2_000000017_0001_43_57_H_._3824cfb560b92ee870597236e80092b0_0001_0001_0000300033_0000001_0_0001 (protein)
# chain: SSSSDASELSDEAFEEAARLFEKGDPEEAEKVLEEVLERLEELNDPHAVETLRLLLRFLRTSSSS
# B12: il2ra_site2_2erj_sap_28_mot_c2bf78bdce995293a161f7082e24b401_0001_000000177_0001_37_51_H_._HHH_b2_03766_af2_0001_0001200026_0000001_0_0001 (protein)
# chain: SSSSDLHELYKLLNELMELLHRGDEEEARRVLEEARRLAEEFGSRNVKEVLEFLFKNFERSSSSS
# B13: il2ra_site1_3nfp_normal_mot_HHH_b1_07644_af2_000000110_0001_40_57_H_._HEEHE_2706_0001_0000200023_0000001_0 (protein)
# chain: DQEEIVRRLIEQKAKQAGVPHVEVEVHNGTFTVTVEGDDEAAEKVLEHAEEAAERVGVPIHVETR
# B14: il2ra_site2_3nfp_normal_mot_HHH_b2_08209_000000146_0001_1_18_H_._HHH_b1_04301_0001_0000300020_0000001_0 (protein)
# chain: SSSSSEEVEELLEKVEELLKRGDYEEARKLLKRAADLAFQAGDFELFARLQDLFELVLRLSSSSS
# B15: il2ra_site2_3nfp_sap_26_mot_HHH_b1_05845_af2_000000292_0001_20_37_H_._77bd590ed5d37effd7ce5f2f52e6dcee_0001_0001_0000300009_0000001_0_0001 (protein)
# chain: SSSSSDNSEEYLRAALALLERAKSEEEFEKLFEMIRLAAESNNDEEIEELLEELREKWESSSSSS
# B16: il2ra_site1_2b5i_normal_mot_09770d796a13084421b44ad29b674de3_0001_1_000000065_0001_17_32_H_._HHH_b2_03211_0001_0000300015_0000001_0_af2pred_dldesign_0_af2pred (protein)
# chain: SSSSRVEELLAEARRLIEEGKLEEAREVLERARDLAEEAEDPELLKKVNEVLKELYKAELSSSSS
# B17: il2ra_site2_3nfp_normal_mot_HHH_b1_05628_af2_000000064_0001_19_35_H_._HHH_b1_04724_af2_0001_0000200013_0000001_0_af2pred_0001_af2pred (protein)
# chain: SSSSDEEEEVKELLREAKELLERGNPEEAEKVVLRAASIASELGNFELFAAATRLAEEIHRSSSS
# B18: il2ra_site1_3nfp_sap_10_mot_HHH_b1_06312_000000077_0001_1_18_H_._HHH_b1_02469_af2_0001_0000200012_0000001_0_0001 (protein)
# chain: TFVEEAIEEIEKRDEELSELLRKVYELAHEKQDPELFRLLIRALAAVQQGNPEKAKKLLKEAEER
# Target: il2ra, P01589
# Assay: yeast display titration
row,Binder,apparent Kd
1,B1,inactive: no binding seen
2,B2,inactive: no binding seen
3,B3,inactive: > 1150 nM
4,B4,inactive: no binding seen
5,B5,inactive: no binding seen
6,B6,inactive: no binding seen
7,B7,inactive: no binding seen
8,B8,inactive: > 770 nM
9,B9,inactive: no binding seen
10,B10,inactive: no binding seen
11,B11,inactive: no binding seen
12,B12,inactive: no binding seen
13,B13,inactive: no binding seen
14,B14,inactive: no binding seen
15,B15,inactive: no binding seen
16,B16,inactive: no binding seen
17,B17,inactive: no binding seen
18,B18,inactive: no binding seen

# Numbers 7 through 8 of the list above:
row,Binder,apparent Kd
7,B7,inactive: no binding seen
8,B8,inactive: > 770 nM
